For one experiment, the target named is T1, TEX19.1-YFP (mouse) (UniProt Q99MV2).
T1 sequence: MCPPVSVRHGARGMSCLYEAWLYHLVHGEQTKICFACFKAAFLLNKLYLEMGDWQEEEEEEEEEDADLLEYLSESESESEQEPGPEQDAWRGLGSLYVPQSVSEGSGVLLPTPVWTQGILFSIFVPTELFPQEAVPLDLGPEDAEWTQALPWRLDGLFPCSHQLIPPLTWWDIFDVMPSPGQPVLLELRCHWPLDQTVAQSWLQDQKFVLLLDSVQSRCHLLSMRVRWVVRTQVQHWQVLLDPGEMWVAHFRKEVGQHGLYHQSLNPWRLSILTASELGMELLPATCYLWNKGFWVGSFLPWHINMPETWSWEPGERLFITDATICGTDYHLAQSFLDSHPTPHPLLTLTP
In words: co-IP.

Sequences of proteins named here, by UniProt entry; tags and fusion partners are left off.
UniProt Q8IWV8: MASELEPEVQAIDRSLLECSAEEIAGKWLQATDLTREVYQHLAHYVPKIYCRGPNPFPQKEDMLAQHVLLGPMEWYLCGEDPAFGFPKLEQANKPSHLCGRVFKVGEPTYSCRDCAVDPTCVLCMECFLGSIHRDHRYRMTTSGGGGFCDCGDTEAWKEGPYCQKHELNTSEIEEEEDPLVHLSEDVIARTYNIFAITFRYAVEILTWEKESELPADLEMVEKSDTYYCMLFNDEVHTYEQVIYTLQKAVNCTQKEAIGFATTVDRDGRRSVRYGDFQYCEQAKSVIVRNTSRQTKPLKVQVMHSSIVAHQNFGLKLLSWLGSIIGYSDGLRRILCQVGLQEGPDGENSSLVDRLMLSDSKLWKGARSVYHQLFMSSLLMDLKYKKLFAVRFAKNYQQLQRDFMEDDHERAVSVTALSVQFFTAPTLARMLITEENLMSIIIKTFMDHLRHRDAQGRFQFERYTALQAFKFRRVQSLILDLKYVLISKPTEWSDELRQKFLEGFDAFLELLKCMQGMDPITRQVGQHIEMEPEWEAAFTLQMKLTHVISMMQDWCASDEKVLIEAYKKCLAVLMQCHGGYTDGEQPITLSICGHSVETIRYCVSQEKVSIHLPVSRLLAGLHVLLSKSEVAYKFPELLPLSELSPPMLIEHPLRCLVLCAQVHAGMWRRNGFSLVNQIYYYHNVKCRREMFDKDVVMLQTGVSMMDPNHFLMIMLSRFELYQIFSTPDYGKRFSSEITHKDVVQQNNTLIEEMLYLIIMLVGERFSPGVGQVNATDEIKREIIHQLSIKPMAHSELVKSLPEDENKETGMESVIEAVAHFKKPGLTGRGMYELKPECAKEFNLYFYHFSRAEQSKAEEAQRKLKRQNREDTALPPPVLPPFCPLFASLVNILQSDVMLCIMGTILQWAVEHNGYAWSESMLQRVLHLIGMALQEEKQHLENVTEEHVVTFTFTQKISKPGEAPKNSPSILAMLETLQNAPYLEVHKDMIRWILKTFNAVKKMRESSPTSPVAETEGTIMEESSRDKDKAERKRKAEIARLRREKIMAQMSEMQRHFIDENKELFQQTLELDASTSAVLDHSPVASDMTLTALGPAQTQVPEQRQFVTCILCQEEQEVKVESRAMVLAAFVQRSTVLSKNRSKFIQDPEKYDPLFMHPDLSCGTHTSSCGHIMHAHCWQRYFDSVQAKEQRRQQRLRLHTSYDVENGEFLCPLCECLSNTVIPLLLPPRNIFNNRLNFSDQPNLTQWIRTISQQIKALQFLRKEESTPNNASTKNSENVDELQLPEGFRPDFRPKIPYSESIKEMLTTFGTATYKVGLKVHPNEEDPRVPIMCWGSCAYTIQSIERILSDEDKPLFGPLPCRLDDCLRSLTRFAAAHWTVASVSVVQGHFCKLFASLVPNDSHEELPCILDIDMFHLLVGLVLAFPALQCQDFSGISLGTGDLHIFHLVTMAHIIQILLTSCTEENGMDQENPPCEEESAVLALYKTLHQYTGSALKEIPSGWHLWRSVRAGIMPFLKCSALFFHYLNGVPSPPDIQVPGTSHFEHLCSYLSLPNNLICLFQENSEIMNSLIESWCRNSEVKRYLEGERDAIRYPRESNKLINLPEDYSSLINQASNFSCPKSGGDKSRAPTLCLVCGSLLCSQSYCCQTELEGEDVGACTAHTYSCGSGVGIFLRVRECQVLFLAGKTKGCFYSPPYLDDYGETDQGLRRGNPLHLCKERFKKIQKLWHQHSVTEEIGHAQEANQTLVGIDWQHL

Experiment [1] addresses Negative control N-end rule peptide (…) (Sindbis virus). In words: pull-down.
Experiment [2] addresses Type I N-end rule peptide (…) (Sindbis virus). In words: pull-down.
Experiment [3] addresses Type II N-end rule peptide (…) (Sindbis virus). Nature of the experiment: pull-down.
Experiment [4] concerns the target E3 ubiquitin ligase UBR2 (endogenous) (human (endogenous in HEK293/HEK293T)) (UniProt Q8IWV8). In words: pull-down.

No constants are given. Whether binding was seen depends on the method and setting. In cells and extracts the contact can be indirect. Some entries that bind do so weakly or less than the wild type. For some assays here: Tags and fused reporters may be left off the sequences shown.

“E3 ubiquitin ligase UBR2 (endogenous) (from UniProt Q8IWV8 1-1755) (enzyme)”: the binding entry in the experiment with TEX19.1-YFP (mouse) is “binds”; in experiment [1] it was “no binding”; in experiment [2], “no binding”; in experiment [3] it was “binds”.

B1: STREP-tagged TEX19.1 (protein, UniProt Q99MV2 1-351)
chain: T1 sequence
For B1, in experiment [4], the binding entry is reported as “binds”.

The values above are taken from article doi:10.1101/102285.
